Drawing on patent US20110158994A1, this text covers binding for twelve molecules.

Amino acid sequences for entries named in this document (tags omitted). Residues count along the entry.
UniProt P35968, residues 20-764: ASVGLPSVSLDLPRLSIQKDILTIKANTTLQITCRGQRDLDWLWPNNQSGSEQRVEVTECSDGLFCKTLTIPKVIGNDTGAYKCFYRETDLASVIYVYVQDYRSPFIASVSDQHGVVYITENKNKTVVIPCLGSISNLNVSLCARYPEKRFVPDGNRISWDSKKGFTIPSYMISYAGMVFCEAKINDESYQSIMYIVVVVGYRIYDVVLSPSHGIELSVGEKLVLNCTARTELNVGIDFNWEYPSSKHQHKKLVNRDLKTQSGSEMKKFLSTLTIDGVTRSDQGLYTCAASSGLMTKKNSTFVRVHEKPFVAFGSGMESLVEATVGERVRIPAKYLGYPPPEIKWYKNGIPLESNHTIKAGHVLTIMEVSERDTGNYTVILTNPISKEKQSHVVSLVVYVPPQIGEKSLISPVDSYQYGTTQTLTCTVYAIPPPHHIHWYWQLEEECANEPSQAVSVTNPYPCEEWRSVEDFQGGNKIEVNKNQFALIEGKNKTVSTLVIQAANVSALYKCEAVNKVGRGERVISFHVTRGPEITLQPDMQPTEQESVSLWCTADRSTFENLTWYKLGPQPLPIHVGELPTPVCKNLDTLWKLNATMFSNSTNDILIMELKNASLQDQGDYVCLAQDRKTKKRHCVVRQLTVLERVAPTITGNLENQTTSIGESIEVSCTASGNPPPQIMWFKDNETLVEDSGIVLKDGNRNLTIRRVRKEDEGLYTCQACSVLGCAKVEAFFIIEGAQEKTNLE

The labels stand for the following.
B1: Polypeptide number 5 displayed on phage (peptide)
peptide: GYEWQY
B2: Polypeptide number 10 displayed on phage (peptide)
peptide: HINAGQWF
B3: Polypeptide number 9 displayed on phage (peptide)
peptide: HIKAGQWF
B4: Polypeptide number 17 displayed on phage (peptide)
peptide: HLNMRYQWI
B5: Polypeptide number 20 displayed on phage (peptide)
peptide: LLPSG
B6: Polypeptide number 8 displayed on phage (peptide)
peptide: DGSGPPTN
B7: Polypeptide number 15 displayed on phage (peptide)
peptide: YQDKSHGGF
B8: Polypeptide number 13 displayed on phage (peptide)
peptide: KHKNQATG
B9: Polypeptide number 12 displayed on phage (peptide)
peptide: WSLGRPFP
B10: Polypeptide number 14 displayed on phage (peptide)
peptide: WAIHKPWP
B11: Polypeptide number 11 displayed on phage (peptide)
peptide: HITDGQWF
B12: Polypeptide number 16 displayed on phage (peptide)
peptide: FEGTYGGEV

No constants are given. Whether binding was seen depends on the method and setting. Some binding calls cover weakened binding; strength is not graded here.

This assay deals with Human VEGFR-2 (R&D systems, Inc.; catalog #357-KD) (human) (UniProt P35968). In words: phage ELISA: VEGFR-2 on plate, phage solution, anti-M13-HRP, OD450. (ELISA stands for enzyme-linked immunosorbent assay.)
In the case of B1, the binding result is listed as “binds”.

Consider B2, for which the binding result is “binds”. To B3 belongs “binds”; to B4, “binds”; to B5, “binds”. Consider B6, for which the binding result is “binds”.

B7: the binding result is “binds”. As to B8, the binding entry is recorded as “binds”. B9: the binding result is recorded as “binds”. With B10, the binding result is listed as “binds”.

B11: the binding result is on record as “binds”.

With B12, the binding entry was “binds”.
